# Measured values from the supplement of paper PMC8728848.
# The other results are listed elsewhere or left out.
# B1: S100A12 (Homo sapiens), P80511 (protein)
# chain: MTKLEEHLEGIVNIFHQYSVRKGHFDTLSKGELKQLLTKELANTIKNIKDKAVIDEIFQGLDANQDEQVDFQEFISLVAIALKAAHYHTHKE
# Columns and labels:
# Test in all cases: glycan array binding signal (z-score within array); higher = stronger binding
# Conditions in all cases: glycan notation: IUPAC condensed, linker removed
# [1] = biological target: Neu5Ac(a2-3)Gal(b1-3)GalNAc(b1-3)Gal(b1-4)GlcNAc
# Outline: (§1)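 Glycan array data were curated from 3228 arrays in the Consortium for Functional Glycomics database and kept only where the protein sequence was available. Glycan names were converted to IUPAC-condensed notation, and columns mapping to the same glycan were averaged. The binding signal is a within-array Z-score, averaged across arrays of the same protein sequence at different concentrations or buffers and across linkers. Negative Z-scores can be read as non-binding.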
# [2] = biological target: Neu5Ac(a2-3)Gal(b1-3)GalNAc(b1-4)[Neu5Ac(a2-3)]Gal(b1-4)Glc
# Outline: as §1
# [3] = biological target: Neu5Ac(a2-3)Gal(b1-3)GalNAc6S
# Outline: as §1
# [4] = biological target: Neu5Ac(a2-3)Gal(b1-3)GlcNAc
# Outline: as §1
# [5] = biological target: Neu5Ac(a2-3)Gal(b1-3)GlcNAc(b1-3)Gal(b1-3)GlcNAc
# Outline: as §1
# [6] = biological target: Neu5Ac(a2-3)Gal(b1-3)GlcNAc(b1-3)Gal(b1-4)GlcNAc
# Outline: as §1
# [7] = biological target: Neu5Ac(a2-3)Gal(b1-3)GlcNAc6S
# Outline: as §1
# [8] = biological target: Neu5Ac(a2-3)Gal(b1-3)[Fuc(a1-4)]GlcNAc
# Outline: as §1
# [9] = biological target: Neu5Ac(a2-3)Gal(b1-3)[Fuc(a1-4)]GlcNAc(b1-3)Gal(b1-4)[Fuc(a1-3)]GlcNAc
# Outline: as §1
# [10] = biological target: Neu5Ac(a2-3)Gal(b1-3)[Neu5Ac(a2-3)Gal(b1-4)]GlcNAc
# Outline: as §1
# [11] = biological target: Neu5Ac(a2-3)Gal(b1-3)[Neu5Ac(a2-6)]GalNAc
# Outline: as §1
# Neu5Ac(a2-3)Gal(b1-4)Glc = biological target: Neu5Ac(a2-3)Gal(b1-4)Glc
# Outline: as §1
# [12] = biological target: Neu5Ac(a2-3)Gal(b1-4)GlcNAc
# Outline: as §1
# [13] = biological target: Neu5Ac(a2-3)Gal(b1-4)GlcNAc(b1-2)Man(a1-3)[Neu5Ac(a2-3)Gal(b1-4)GlcNAc(b1-2)Man(a1-6)]Man(b1-4)GlcNAc(b1-4)GlcNAc
# Outline: as §1
# [14] = biological target: Neu5Ac(a2-3)Gal(b1-4)GlcNAc(b1-3)Gal(b1-3)GlcNAc
# Outline: as §1
# [15] = biological target: Neu5Ac(a2-3)Gal(b1-4)GlcNAc(b1-3)Gal(b1-4)GlcNAc
# Outline: as §1
# [16] = biological target: Neu5Ac(a2-3)Gal(b1-4)GlcNAc(b1-3)Gal(b1-4)GlcNAc(b1-3)Gal(b1-4)GlcNAc
# Outline: as §1
# [17] = biological target: Neu5Ac(a2-3)Gal(b1-4)GlcNAc(b1-3)Gal(b1-4)[Fuc(a1-3)]GlcNAc
# Outline: as §1
# [18] = biological target: Neu5Ac(a2-3)Gal(b1-4)GlcNAc(b1-6)[Gal(b1-3)]GalNAc
# Outline: as §1
# [19] = biological target: Neu5Ac(a2-3)Gal(b1-4)GlcNAc6S
# Outline: as §1
# [20] = biological target: Neu5Ac(a2-3)Gal(b1-4)[Fuc(a1-3)]GlcNAc
# Outline: as §1
# [21] = biological target: Neu5Ac(a2-3)Gal(b1-4)[Fuc(a1-3)]GlcNAc(b1-3)Gal
# Outline: as §1
# [22] = biological target: Neu5Ac(a2-3)Gal(b1-4)[Fuc(a1-3)]GlcNAc(b1-3)Gal(b1-4)GlcNAc
# Outline: as §1
# [23] = biological target: Neu5Ac(a2-3)Gal(b1-4)[Fuc(a1-3)]GlcNAc(b1-3)Gal(b1-4)[Fuc(a1-3)]GlcNAc(b1-3)Gal(b1-4)[Fuc(a1-3)]GlcNAc
# Outline: as §1
# [24] = biological target: Neu5Ac(a2-3)Gal(b1-4)[Fuc(a1-3)]GlcNAc6S
# Outline: as §1
# [25] = biological target: Neu5Ac(a2-3)Gal6S(b1-4)GlcNAc
# Outline: as §1
# [26] = biological target: Neu5Ac(a2-3)Gal6S(b1-4)[Fuc(a1-3)]GlcNAc
# Outline: as §1
# Neu5Ac(a2-3)GalNAc = biological target: Neu5Ac(a2-3)GalNAc
# Outline: as §1
# [27] = biological target: Neu5Ac(a2-3)GalNAc(b1-4)GlcNAc
# Outline: as §1
# [28] = biological target: Neu5Ac(a2-3)[GalNAc(b1-4)]Gal(b1-4)Glc
# Outline: as §1
# [29] = biological target: Neu5Ac(a2-3)[GalNAc(b1-4)]Gal(b1-4)GlcNAc
# Outline: as §1
# [30] = biological target: Neu5Ac(a2-3)[Neu5Ac(a2-6)]GalNAc
# Outline: as §1
# Neu5Ac(a2-6)Gal = biological target: Neu5Ac(a2-6)Gal
# Outline: as §1
# Neu5Ac(a2-6)Gal(b1-4)Glc = biological target: Neu5Ac(a2-6)Gal(b1-4)Glc
# Outline: as §1
# [31] = biological target: Neu5Ac(a2-6)Gal(b1-4)GlcNAc
# Outline: as §1
# [32] = biological target: Neu5Ac(a2-6)Gal(b1-4)GlcNAc(b1-2)Man(a1-3)[Neu5Ac(a2-6)Gal(b1-4)GlcNAc(b1-2)Man(a1-6)]Man(b1-4)GlcNAc(b1-4)GlcNAc
# Outline: as §1
# [33] = biological target: Neu5Ac(a2-6)Gal(b1-4)GlcNAc(b1-3)Gal(b1-4)GlcNAc
# Outline: as §1
# [34] = biological target: Neu5Ac(a2-6)Gal(b1-4)GlcNAc(b1-3)Gal(b1-4)[Fuc(a1-3)]GlcNAc(b1-3)Gal(b1-4)[Fuc(a1-3)]GlcNAc
# Outline: as §1
# [35] = biological target: Neu5Ac(a2-6)Gal(b1-4)GlcNAc6S
# Outline: as §1
# Neu5Ac(a2-6)GalNAc = biological target: Neu5Ac(a2-6)GalNAc
# Outline: as §1
# [36] = biological target: Neu5Ac(a2-6)GalNAc(b1-4)GlcNAc
# Outline: as §1
# Neu5Ac(a2-8)Neu5Ac = biological target: Neu5Ac(a2-8)Neu5Ac
# Outline: as §1
# [37] = biological target: Neu5Ac(a2-8)Neu5Ac(a2-3)Gal(b1-4)Glc
# Outline: as §1
# [38] = biological target: Neu5Ac(a2-8)Neu5Ac(a2-3)[GalNAc(b1-4)]Gal(b1-4)Glc
# Outline: as §1
# [39] = biological target: Neu5Ac(a2-8)Neu5Ac(a2-8)Neu5Ac
# Outline: as §1
# [40] = biological target: Neu5Ac(a2-8)Neu5Ac(a2-8)Neu5Ac(a2-3)Gal(b1-4)Glc
# Outline: as §1
# [41] = biological target: Neu5Ac(a2-8)Neu5Ac(a2-8)Neu5Ac(a2-3)[GalNAc(b1-4)]Gal(b1-4)Glc
# Outline: as §1
# [42] = biological target: Neu5Ac(a2-8)Neu5Ac(a2-8)Neu5Ac(a2-8)Neu5Ac(a2-3)[GalNAc(b1-4)]Gal(b1-4)Glc
# Outline: as §1
# Neu5Ac(b1-6)GalNAc = biological target: Neu5Ac(b1-6)GalNAc
# Outline: as §1
# [43] = biological target: Neu5Ac(b2-6)Gal(b1-4)GlcNAc
# Outline: as §1
# [44] = biological target: Neu5Ac9Ac(a2-6)Gal(b1-4)GlcNAc
# Outline: as §1
# [45] = biological target: Neu5Gc(a2-3)Gal(b1-3)GlcNAc
# Outline: as §1
# [46] = biological target: Neu5Gc(a2-3)Gal(b1-3)[Fuc(a1-4)]GlcNAc
# Outline: as §1
# Neu5Gc(a2-3)Gal(b1-4)Glc = biological target: Neu5Gc(a2-3)Gal(b1-4)Glc
# Outline: as §1
# [47] = biological target: Neu5Gc(a2-3)Gal(b1-4)GlcNAc
# Outline: as §1
# [48] = biological target: Neu5Gc(a2-3)Gal(b1-4)[Fuc(a1-3)]GlcNAc
# Outline: as §1
# [49] = biological target: Neu5Gc(a2-3)Gal(b1-4)[Fuc(a1-4)]GlcNAc
# Outline: as §1
# [50] = biological target: Neu5Gc(a2-6)Gal(b1-4)GlcNAc
# Outline: as §1
# Neu5Gc(a2-6)GalNAc = biological target: Neu5Gc(a2-6)GalNAc
# Outline: as §1
binder,measurement,setting,value
B1,glycan array binding signal (z-score),[1],-0.704
same,glycan array binding signal (z-score),[2],-0.635
same,glycan array binding signal (z-score),[3],0.727
same,glycan array binding signal (z-score),[4],-0.277
same,glycan array binding signal (z-score),[5],-0.286
same,glycan array binding signal (z-score),[6],-0.505
same,glycan array binding signal (z-score),[7],1.18
same,glycan array binding signal (z-score),[8],-0.182
same,glycan array binding signal (z-score),[9],0.446
same,glycan array binding signal (z-score),[10],-0.498
same,glycan array binding signal (z-score),[11],0.07
same,glycan array binding signal (z-score),Neu5Ac(a2-3)Gal(b1-4)Glc,0.342
same,glycan array binding signal (z-score),[12],-0.596
same,glycan array binding signal (z-score),[13],-1.1
same,glycan array binding signal (z-score),[14],-0.66
same,glycan array binding signal (z-score),[15],0.229
same,glycan array binding signal (z-score),[16],-1.23
same,glycan array binding signal (z-score),[17],0.695
same,glycan array binding signal (z-score),[18],-0.487
same,glycan array binding signal (z-score),[19],0.426
same,glycan array binding signal (z-score),[20],-0.296
same,glycan array binding signal (z-score),[21],-0.943
same,glycan array binding signal (z-score),[22],0.858
same,glycan array binding signal (z-score),[23],-0.324
same,glycan array binding signal (z-score),[24],0.678
same,glycan array binding signal (z-score),[25],0.433
same,glycan array binding signal (z-score),[26],0.736
same,glycan array binding signal (z-score),Neu5Ac(a2-3)GalNAc,-0.554
same,glycan array binding signal (z-score),[27],-0.355
same,glycan array binding signal (z-score),[28],-0.308
same,glycan array binding signal (z-score),[29],-0.368
same,glycan array binding signal (z-score),[30],0.727
same,glycan array binding signal (z-score),Neu5Ac(a2-6)Gal,-0.013
same,glycan array binding signal (z-score),Neu5Ac(a2-6)Gal(b1-4)Glc,0.235
same,glycan array binding signal (z-score),[31],-0.54
same,glycan array binding signal (z-score),[32],-0.666
same,glycan array binding signal (z-score),[33],-0.755
same,glycan array binding signal (z-score),[34],-0.428
same,glycan array binding signal (z-score),[35],0.573
same,glycan array binding signal (z-score),Neu5Ac(a2-6)GalNAc,-0.018
same,glycan array binding signal (z-score),[36],-0.591
same,glycan array binding signal (z-score),Neu5Ac(a2-8)Neu5Ac,0.347
same,glycan array binding signal (z-score),[37],-0.017
same,glycan array binding signal (z-score),[38],-0.275
same,glycan array binding signal (z-score),[39],-0.32
same,glycan array binding signal (z-score),[40],-0.649
same,glycan array binding signal (z-score),[41],0.182
same,glycan array binding signal (z-score),[42],-0.565
same,glycan array binding signal (z-score),Neu5Ac(b1-6)GalNAc,0.657
same,glycan array binding signal (z-score),[43],0.477
same,glycan array binding signal (z-score),[44],-0.213
same,glycan array binding signal (z-score),[45],0.154
same,glycan array binding signal (z-score),[46],-0.442
same,glycan array binding signal (z-score),Neu5Gc(a2-3)Gal(b1-4)Glc,-0.091
same,glycan array binding signal (z-score),[47],-0.597
same,glycan array binding signal (z-score),[48],-0.199
same,glycan array binding signal (z-score),[49],-0.012
same,glycan array binding signal (z-score),[50],-0.183
same,glycan array binding signal (z-score),Neu5Gc(a2-6)GalNAc,-0.009

# Pulled one by one from the list above (two):
binder,measurement,setting,value
B1,glycan array binding signal (z-score),[28],-0.308
same,glycan array binding signal (z-score),[34],-0.428

# Part of the list above, reformatted:
binder | measurement | setting | value
B1 | glycan array binding signal (z-score) | [10] | -0.498
same | glycan array binding signal (z-score) | [20] | -0.296
